Structures are written as SMILES.

The text below walks through data of patent US8343951B2, “Volatile sulfide production inhibitor and method for inhibiting the production of volatile sulfide using the inhibitor” (Kabushiki Kaisha Hayashibara Seibutsu Kagaku Kenkyujo, priority 2006, dated 2013).

The series is described as follows: Sensory test of taste of milk test solutions by 11 panelists. More on the design: key to Taste: different (D) from control; the same (S) as control. The settings on record: for Taste: milk, versus plain milk. Here is the method: AA-2G (reagent grade, commercialized by Hayashibara Biochemical Laboratories, Inc.) was added in commercial milk to give the concentrations described in Table 2 to make the test solutions. Test solutions containing ascorbic acid were prepared in the same way except for using ascorbic acid (guaranteed regent) in place of AA-2G. The commercial milk was used plain as control. Sensory test of the solutions was performed by 11 panelists to evaluate the taste of each test solution added with AA-2G or ascorbic acid as being different (D) from control or as being the same (S) as control. As a result, eight or more of the 11 panelists gave a same evaluation to each test solution.

As for `O=C1O[C@H]([C@@H](O)CO)C(O)=C1O[C@H]1O[C@H](CO)[C@@H](O)[C@H](O)[C@H]1O` [AA-2G, α-D-glucopyronosyl-(1→2)-L-ascorbic acid], the “taste of the milk (sensory test)” value by setting is: (concentration of 0.5% or less) “did not alter the taste of the milk”; (concentration of 2.5%) “alter the taste of the milk”. Moreover, the Taste result is, setting by setting: (additive 0.0001% in sample) “S”; (additive 0.0005% in sample) “S”; (additive 0.001% in sample) “S”; (additive 0.005% in sample) “S”; (additive 0.01% in sample) “S”; (additive 0.05% in sample) “S”. Also, the Taste entry by setting is: (additive 0.1% in sample) “S”; (additive 0.5% in sample) “S”; (additive 2.5% in sample) “D”.
For the compound `O=C1O[C@H]([C@@H](O)CO)C(O)=C1O` [Ascorbic acid, L-ascorbic acid, reference compound], the “taste of the milk (sensory test)” value is “did not alter the taste of the milk” (concentration of 0.5% or less) and “alter the taste of the milk” (concentration of 2.5%). Further, the Taste result reads like this: (additive 0.0001% in sample) “S”; (additive 0.0005% in sample) “S”; (additive 0.001% in sample) “S”; (additive 0.005% in sample) “S”; (additive 0.01% in sample) “S”; (additive 0.05% in sample) “S”. Moreover, the Taste result by setting is: (additive 0.1% in sample) “S”; (additive 0.5% in sample) “S”; (additive 2.5% in sample) “D”.
